Assay results from patent US20100222408A1 (Johns Hopkins, published 2010).
Results are given in words; binding and its absence hold for the method and conditions named. In cells and extracts the contact can be indirect. Some entries that bind do so weakly or less than the wild type.

Chains of the proteins cited; added tags and fusions are not shown. Lines headed by an entry give the natural chain unless they say otherwise; changes in a name come on top. A line that says so, or that is headed by a name, gives the form on record, which may keep a tag or linker. Residues count along the entry.
ΔF508-cystic fibrosis transmembrane receptor (P13569, form named): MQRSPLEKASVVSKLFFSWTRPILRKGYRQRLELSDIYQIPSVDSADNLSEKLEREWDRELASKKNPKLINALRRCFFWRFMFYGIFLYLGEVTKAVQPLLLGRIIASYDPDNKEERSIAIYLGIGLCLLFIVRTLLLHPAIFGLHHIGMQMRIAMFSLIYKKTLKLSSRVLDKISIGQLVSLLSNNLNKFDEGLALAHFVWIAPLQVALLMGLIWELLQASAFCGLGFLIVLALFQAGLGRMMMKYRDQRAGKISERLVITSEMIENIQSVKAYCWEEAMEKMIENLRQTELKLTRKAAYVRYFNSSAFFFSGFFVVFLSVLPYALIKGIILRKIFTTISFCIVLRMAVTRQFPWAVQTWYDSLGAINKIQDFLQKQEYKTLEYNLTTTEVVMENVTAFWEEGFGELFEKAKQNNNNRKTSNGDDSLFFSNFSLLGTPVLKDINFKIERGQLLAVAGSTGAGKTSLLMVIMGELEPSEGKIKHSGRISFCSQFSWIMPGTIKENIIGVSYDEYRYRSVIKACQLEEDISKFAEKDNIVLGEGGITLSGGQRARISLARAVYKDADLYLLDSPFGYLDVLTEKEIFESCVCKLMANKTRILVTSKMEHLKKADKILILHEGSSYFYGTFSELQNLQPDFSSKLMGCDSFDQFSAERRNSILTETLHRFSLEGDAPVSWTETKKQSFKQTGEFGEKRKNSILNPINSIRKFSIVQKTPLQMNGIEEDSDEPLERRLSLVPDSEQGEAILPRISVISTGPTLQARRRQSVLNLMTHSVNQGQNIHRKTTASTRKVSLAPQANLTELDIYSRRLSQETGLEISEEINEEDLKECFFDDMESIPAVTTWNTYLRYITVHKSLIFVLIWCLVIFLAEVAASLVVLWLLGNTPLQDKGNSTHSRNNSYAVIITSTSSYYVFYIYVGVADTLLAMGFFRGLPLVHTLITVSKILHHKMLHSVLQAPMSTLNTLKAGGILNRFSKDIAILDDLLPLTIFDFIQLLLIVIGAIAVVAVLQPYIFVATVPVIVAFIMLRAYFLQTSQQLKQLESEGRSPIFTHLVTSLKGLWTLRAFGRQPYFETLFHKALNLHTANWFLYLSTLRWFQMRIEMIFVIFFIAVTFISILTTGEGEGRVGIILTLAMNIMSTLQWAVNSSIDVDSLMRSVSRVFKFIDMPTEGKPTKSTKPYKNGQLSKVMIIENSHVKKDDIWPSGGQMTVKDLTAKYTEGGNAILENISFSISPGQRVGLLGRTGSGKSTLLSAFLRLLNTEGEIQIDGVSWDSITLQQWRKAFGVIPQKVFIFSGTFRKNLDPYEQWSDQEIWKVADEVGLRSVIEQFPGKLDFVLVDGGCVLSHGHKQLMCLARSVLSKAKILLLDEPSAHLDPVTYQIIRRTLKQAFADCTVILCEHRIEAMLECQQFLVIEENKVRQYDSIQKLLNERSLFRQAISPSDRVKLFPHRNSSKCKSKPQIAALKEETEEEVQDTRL
UniProt P55072, residues 2-806: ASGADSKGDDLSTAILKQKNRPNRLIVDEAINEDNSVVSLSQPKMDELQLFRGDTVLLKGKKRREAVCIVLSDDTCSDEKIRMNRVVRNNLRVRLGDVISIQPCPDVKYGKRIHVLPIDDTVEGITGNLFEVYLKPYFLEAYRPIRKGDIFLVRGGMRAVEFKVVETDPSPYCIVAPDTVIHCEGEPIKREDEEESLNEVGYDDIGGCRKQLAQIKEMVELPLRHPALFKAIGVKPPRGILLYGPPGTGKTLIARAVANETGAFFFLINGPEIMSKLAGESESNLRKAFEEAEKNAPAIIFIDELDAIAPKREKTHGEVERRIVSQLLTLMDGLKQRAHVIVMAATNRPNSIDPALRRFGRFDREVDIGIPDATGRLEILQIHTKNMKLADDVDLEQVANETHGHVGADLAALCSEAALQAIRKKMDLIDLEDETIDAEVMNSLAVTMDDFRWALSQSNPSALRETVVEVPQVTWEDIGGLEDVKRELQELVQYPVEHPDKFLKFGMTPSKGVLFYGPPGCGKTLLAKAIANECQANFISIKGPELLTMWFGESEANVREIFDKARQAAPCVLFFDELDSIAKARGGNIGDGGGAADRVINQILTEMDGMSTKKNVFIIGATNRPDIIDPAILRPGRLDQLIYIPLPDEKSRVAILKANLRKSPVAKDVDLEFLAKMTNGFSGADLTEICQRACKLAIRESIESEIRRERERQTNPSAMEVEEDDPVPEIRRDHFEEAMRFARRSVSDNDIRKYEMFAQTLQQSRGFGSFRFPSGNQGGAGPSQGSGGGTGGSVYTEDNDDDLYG

Columns and labels:
[1] = biological target: ΔF508-cystic fibrosis transmembrane receptor (human) (UniProt P13569); assay: co-immunoprecipitation, IP CFTR from IB3-1 cells, immunoblot VCP (FIG. 4A)
[2] = biological target: ΔF508-cystic fibrosis transmembrane receptor (human) (UniProt P13569); assay: co-immunoprecipitation from IB3-1 total protein extract, IP CFTR, immunoblot VCP (FIG. 4A)
[3] = biological target: ΔF508-cystic fibrosis transmembrane receptor (human) (UniProt P13569); assay: co-immunoprecipitation, IP CFTR (anti-CFTR 169) from IB3-1 total protein extract, immunoblot VCP
[4] = biological target: ΔF508-cystic fibrosis transmembrane receptor (human) (UniProt P13569); assay: co-immunoprecipitation, IP CFTR from IB3-1 cells, immunoblot VCP (FIG. 3B, 3C)
[5] = biological target: ΔF508-cystic fibrosis transmembrane receptor (human) (UniProt P13569); assay: co-immunoprecipitation from bronchial brushings of ΔF508 CF subjects, IP CFTR, immunoblot VCP (FIG. 4B)

Measured: binding

p97/valosin-containing protein (from UniProt P55072 2-806) (enzyme)
binds: [1] | [2] | [3] | [4] | [5]
